Assay results published in US20150078996A1 (Merck Sharp & Dohme, published 2015).
Results are given in words; binding and its absence hold for the method and conditions named. Binding can be weak; no strength is given.

Amino acid sequences for entries named in this document (tags omitted). A change or cut given only in a name is not applied to a line headed by its entry.
UniProt P08069: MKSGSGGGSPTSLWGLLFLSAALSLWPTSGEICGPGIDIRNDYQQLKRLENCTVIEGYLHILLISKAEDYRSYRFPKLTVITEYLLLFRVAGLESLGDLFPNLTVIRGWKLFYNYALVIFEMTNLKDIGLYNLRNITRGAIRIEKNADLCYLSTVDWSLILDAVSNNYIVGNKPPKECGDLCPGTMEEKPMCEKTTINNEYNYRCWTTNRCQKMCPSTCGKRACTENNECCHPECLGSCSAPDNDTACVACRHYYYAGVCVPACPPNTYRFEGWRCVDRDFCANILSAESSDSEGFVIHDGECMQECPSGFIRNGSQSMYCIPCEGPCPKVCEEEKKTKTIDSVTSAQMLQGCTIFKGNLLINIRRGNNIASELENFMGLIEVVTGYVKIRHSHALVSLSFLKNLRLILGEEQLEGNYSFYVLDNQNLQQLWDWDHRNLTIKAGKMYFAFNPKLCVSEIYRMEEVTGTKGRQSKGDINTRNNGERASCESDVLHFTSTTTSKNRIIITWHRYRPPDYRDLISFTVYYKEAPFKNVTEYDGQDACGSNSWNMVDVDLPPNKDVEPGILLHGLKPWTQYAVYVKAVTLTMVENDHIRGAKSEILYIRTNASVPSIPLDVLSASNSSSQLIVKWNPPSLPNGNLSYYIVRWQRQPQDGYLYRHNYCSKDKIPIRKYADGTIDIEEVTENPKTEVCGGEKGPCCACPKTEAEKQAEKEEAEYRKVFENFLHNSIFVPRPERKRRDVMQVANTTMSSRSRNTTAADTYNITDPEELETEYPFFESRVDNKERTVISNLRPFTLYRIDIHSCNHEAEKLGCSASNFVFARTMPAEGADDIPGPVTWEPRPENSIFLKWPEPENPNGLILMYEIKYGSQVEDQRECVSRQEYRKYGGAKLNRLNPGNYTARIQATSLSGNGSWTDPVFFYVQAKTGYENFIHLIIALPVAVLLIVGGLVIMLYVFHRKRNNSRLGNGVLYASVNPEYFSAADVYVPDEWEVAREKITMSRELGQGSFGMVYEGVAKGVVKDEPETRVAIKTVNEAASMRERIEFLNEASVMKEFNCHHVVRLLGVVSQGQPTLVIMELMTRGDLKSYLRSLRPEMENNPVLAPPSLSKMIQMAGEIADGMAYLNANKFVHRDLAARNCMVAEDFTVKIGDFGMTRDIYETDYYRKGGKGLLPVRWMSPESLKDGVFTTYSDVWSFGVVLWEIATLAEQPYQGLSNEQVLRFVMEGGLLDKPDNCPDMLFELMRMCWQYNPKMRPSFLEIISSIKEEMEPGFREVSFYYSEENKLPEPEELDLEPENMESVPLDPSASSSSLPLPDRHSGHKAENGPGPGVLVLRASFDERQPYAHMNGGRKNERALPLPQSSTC

Experiments:
[1] = biological target: recombinant human IGF-1R extracellular domains (R&D Systems) (human) (UniProt P08069); assay: SPR (BIAcore X), 7.4 µg/ml over 439 RU soluble IGF-1R on a CM4 chip, sequential injections
[2] = biological target: recombinant human IGF-1R extracellular domains (R&D Systems) (human) (UniProt P08069); assay: SPR Biacore X, sequential injections
[3] = biological target: recombinant human IGF-1R extracellular domains (R&D Systems) (human) (UniProt P08069); assay: western blot after SDS-PAGE, non reducing conditions, 12B1 as probe
[4] = biological target: recombinant human IGF-1R extracellular domains (R&D Systems) (human) (UniProt P08069); assay: western blot after non-reducing SDS-PAGE

Measured: binding

B1: mouse monoclonal antibody 12B1 (anti-IGF-1R) (antibody, mouse IgG1, V domains shown)
VH: QVQLKESGPDLVAPSQSLSITCTVSGFSLTNYGVHWVRQFPGKGLEWLGVIWAGGNTNYNSALMSRLTISKDNSKSQVFLKMNSLQTDDTAVYYCAREYGSTYVAWFAHWGQGTLVTVSS
VL: ENVLTQSPAIMSASPGEKVTMTCGASSSVSSSFLHWYQQKSGASPKLWIYSTSNLASGVPTRFSGSGSGTSYSLTISSVEAEDAATYYCQQYSGYPLTFGAGTKLELK
notes: also called MAb 12B1; clone 12B1
binds: all assays above
